Test results published in patent US7022480B1, “Exons of the hSKCa3/KCNN3 gene” (priority 2001, dated 2006).
For at least one compound, name, drawing or mass did not settle the structure.

Tested on: endogenous Kv currents in PC12 cells
Test: Whole-cell patch clamp of endogenous Kv currents in PC12 cells (internal control)
Format: cell-based, rat
Conditions: apamin, potentials more positive than 0 mV

## CC(C)C[C@@H]1NC(=O)[C@H](C)NC(=O)[C@H]([C@@H](C)O)NC(=O)[C@H](CCC(=O)O)NC(=O)[C@@H]2CCCN2C(=O)[C@H](C)NC(=O)[C@H](CCCCN)NC(=O)[C@@H]2CSSC[C@@H](C(=O)N[C@@H](CCC(N)=O)C(=O)N[C@@H](CCC(N)=O)C(=O)N[C@@H](Cc3cnc[nH]3)C(N)=O)NC(=O)[C@H](CCCNC(=N)N)NC(=O)[C@H](CCCNC(=N)N)NC(=O)[C@H](C)NC(=O)[C@H](CSSC[C@H](N)C(=O)N[C@@H](CC(N)=O)C(=O)N2)NC1=O [apamin]
  effect on outward Kv current: not inhibited
